Reference: PubChem BioAssay AID1347075 (National Center for Advancing Translational Sciences (NCATS), 2019)
“And” between values parts separate entries of the source, which are not always exact repeats. Identical values can stand only once. Hit rate of the full screen: of about 400,000 compounds, about 5,500 (1.4%) were called active. The inconclusive results got no clear call from the source; some entries with a clear call stand among them for comparison. Calls follow the shape of the dose curve; as a rule, active = well fitted cell-killing curve with a large enough effect; inconclusive = small, poorly fitted or top-dose-only effect, or effect the other way; inactive = flat fitted curve, though single readings scatter. Where the call is inconclusive, the potency comes from a doubtful curve fit.

assay: qHTS assay for MDR1-selective chemotherapeutics: Primary screen using the parental adenocarcinoma cell KB-3-1; conditions: KB-3-1 viability, CellTiter-Glo ATP luminescence, 72 h; series mostly up to 46.1 µM; also: nearly all actives have a fitted effect of over 60% in size
How it was run: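 Using CellTiter-Glo luminescence, growth of non-resistant KB-3-1 adenocarcinoma cells is assessed 72 h after pin-tool compound addition at 37 °C. Normalized responses across the concentration series yield fitted curves.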
Potency is read from the fitted curve at half-maximal effect.

Which Potency does the source give for `COc1ccc(/C=N/n2c(SC)nnc2-c2ccccc2)cc1C` here?
The Potency was inconclusive: 18.4 µM [cytotoxic, single point].

Which Potency does the source give for `CCc1nc2c(OCc3ccc(C(F)(F)F)cc3)cccn2c1N(C)C(=O)c1ccc(C)cc1` here?
Its Potency is inconclusive: 29.1 µM [cytotoxic, single point].

For `Cc1cc(C)c(NC(=S)NC(NC(=O)c2ccccc2)C(Cl)(Cl)Cl)c(C)c1` (stereo not given), which Potency is on record?
The Potency was inconclusive: 20.6 µM [cytotoxic, single point].

For `CCOC(=O)C1=C(c2ccccc2)NC(=S)NC1c1cc([N+](=O)[O-])ccc1OC` (stereo not given), which Potency is on record?
Its Potency is “inactive”.

Which Potency does the source give for `CSc1ccccc1NC(=O)CSc1nncs1` here?
The Potency was “inactive”.

Which Potency does the source give for `CCOC(=O)c1c2ccc(OCC(=O)NN)cc2n2ccccc12` here?
Its Potency is inconclusive: 0.0411 µM [cytotoxic, full curve].

With `CCN(Cc1ccccc1)S(=O)(=O)c1ccc(C(=O)Nc2nnc(C3CC3)o2)cc1` as the molecule, how does the Potency read?
The Potency was inconclusive: 2.91 µM [cytotoxic, partial curve, poor fit].

For `CCOC(=O)N1CCN(S(=O)(=O)c2ccc(C(=O)Nc3nc4ccc(F)cc4s3)cc2)CC1`, which Potency is on record?
The Potency was inconclusive: 13 µM [cytotoxic, partial curve, poor fit].

With `O=C(N[C@@H]1CCC(=O)N(CC[C@H](Sc2ccc(Br)cc2)c2ccccc2)CC1)OCc1ccccc1` as the molecule, how does the Potency read?
The Potency was inconclusive: 32.6 µM [cytotoxic, single point].

For `COc1ccccc1NC(=O)c1cc(S(=O)(=O)N2CCC3(CC2)OCCO3)ccc1F`, which Potency is on record?
The Potency was inconclusive: 4.61 µM [cytotoxic, full curve].

With `CCOC(=O)C1=C(NC(=S)NC(=O)c2ccccc2)c2ccccc2CC1C(C)C` (stereo not given) as the molecule, how does the Potency read?
The Potency was inconclusive: 11.6 µM [cytotoxic, partial curve, poor fit].

Which Potency does the source give for `O=C1Nc2ccc(Br)cc2/C1=C/C(=O)c1ccccc1` here?
Its Potency is inconclusive: 29.1 µM [cytotoxic, single point].

Which Potency does the source give for `COc1ccc(Cc2c(C3CCCCC3)nc3ccc(Cl)cn23)c(C)c1` here?
Its Potency is “inactive”.

For `COC(=O)c1sccc1NC(=O)CC1C(=O)NCCN1C(=O)Nc1cc(Cl)ccc1OC` (stereo not given), which Potency is on record?
The Potency was “inactive”.

For `Cc1ccc(NS(=O)(=O)N2CCOCC2)cc1`, which Potency is on record?
Its Potency is inconclusive: 14.6 µM [rising, partial curve, poor fit].

With `CCN(CC)c1ccc(/C=N/Nc2nc3ccccc3[nH]2)c(O)c1` as the molecule, how does the Potency read?
Its Potency is inconclusive: 2.59 µM [cytotoxic, partial curve, poor fit].

Which Potency does the source give for `CCOc1ccc(Nc2nc(N)nc(CCl)n2)cc1` here?
The Potency was active: 13 µM.

For `CCOc1ccc2c(C)nc(NC3=NC(C)(C)C=C(C)N3)nc2c1`, which Potency is on record?
The Potency was inconclusive: 35.5 µM [cytotoxic, single point].

Which Potency does the source give for `CC1CCN(S(=O)(=O)c2ccc3c(c2)oc(=O)n3CC(=O)N2CCCCC2)CC1` here?
Its Potency is “inactive”.

With `Cc1nnc(SCC(=O)Nc2cccc([N+](=O)[O-])c2)n1CC1CCCO1` (stereo not given) as the molecule, how does the Potency read?
The Potency was “inactive”.

For `CC(=O)c1c(N2CCCCC2)nc(=S)n(Cc2ccccc2)c1C`, which Potency is on record?
Its Potency is inconclusive: 14.6 µM [cytotoxic, partial curve].

Which Potency does the source give for `Cc1nc2ccc(-c3nc4ccc(N)cc4[nH]3)cc2[nH]1` here?
Its Potency is inconclusive: 7.31 µM [rising, partial curve, poor fit].

Which Potency does the source give for `CCCCNC(=O)Cn1c(SCc2cccc(F)c2)nc2ccncc21` here?
The Potency was “inactive”.

With `COc1cc(N=Nc2cccc(S(N)(=O)=O)c2)c2ccccc2c1N` as the molecule, how does the Potency read?
The Potency was active: 23.1 µM.

For `O=C(c1ccccc1)c1ccc(Cn2cc(-c3ccccc3)nn2)cc1`, which Potency is on record?
Its Potency is inconclusive: 2.06 µM [cytotoxic, partial curve, poor fit] and inconclusive: 16.4 µM [cytotoxic, single point].

For `CCOc1ccc(C2CC(=O)Nc3c2c(=O)[nH]c2ncnn32)cc1` (stereo not given), which Potency is on record?
Its Potency is “inactive”.

For `C[C@H](NC(=O)c1[nH]cnc1C(=O)Nc1ccccc1F)c1ccccc1`, which Potency is on record?
The Potency was inconclusive: 23.1 µM [cytotoxic, single point].

With `CCN1C(=O)/C(=C2/C=Cc3cc(C)ccc3N2CC)N(C)C1=S` as the molecule, how does the Potency read?
The Potency was inconclusive: 23.1 µM [cytotoxic, single point].

For `Cc1nnc(SCC(=O)c2c(N)n(C)c(=O)n(C)c2=O)n1Cc1ccccc1`, which Potency is on record?
Its Potency is inconclusive: 32.6 µM [cytotoxic, single point].

Which Potency does the source give for `O=C(OCC(=O)N1CCCC1=O)c1nc(Cl)c(Cl)c(Cl)c1Cl` here?
Its Potency is inconclusive: 18.4 µM [cytotoxic, partial curve].

With `CCN(C(=O)CSc1nc(C)c(C)c(C)n1)C1CCS(=O)(=O)C1` (stereo not given) as the molecule, how does the Potency read?
The Potency was “inactive”.

Which Potency does the source give for `Cc1ccc(C)c(-c2nnc(NC(=O)c3ccco3)o2)c1` here?
The Potency was inconclusive: 25.9 µM [cytotoxic, single point].

For `COc1ccc(NC(=O)C(C)N2Cc3ccccc3C2=O)cc1OC` (stereo not given), which Potency is on record?
The Potency was “inactive”.

For `CCCCn1nnnc1C(c1cc2ccccc2o1)N1CCN(CCN(C)C)CC1` (stereo not given), which Potency is on record?
Its Potency is “inactive”.

Which Potency does the source give for `Cc1ccc2c(c1)c(=O)c1ccccc1n2CCCC(=O)Nc1ccc(C)c(C)c1` here?
The Potency was inconclusive: 20.6 µM [cytotoxic, single point].

For `Cc1ccc(C(=O)C2CCN(CC(=O)Nc3ccc(N(C)C)cc3)CC2)cc1`, which Potency is on record?
Its Potency is “inactive”.

With `O=C(CNC(=O)c1ccccc1O)N/N=C/c1cc(Br)ccc1OC(=O)/C=C/c1ccco1` as the molecule, how does the Potency read?
Its Potency is inconclusive: 8.2 µM [cytotoxic, partial curve].

For `CCn1ncc(Br)c1C(=O)Nc1ccccc1C(=O)OC`, which Potency is on record?
The Potency was active: 20.6 µM.

Which Potency does the source give for `CCN(CC)S(=O)(=O)c1cc(NC(=S)NC(=O)C2CCCC2)ccc1C` here?
The Potency was inconclusive: 29.1 µM [cytotoxic, partial curve, poor fit].

With `CCOc1ccc(NS(=O)(=O)c2cnc(Cl)c(Cl)c2)cc1` as the molecule, how does the Potency read?
The Potency was inconclusive: 29.1 µM [cytotoxic, single point].

With `COc1cc(NC(=O)c2cccc(COCC(F)(F)C(F)F)c2)cc(OC)c1OC` as the molecule, how does the Potency read?
The Potency was inconclusive: 20.6 µM [rising, partial curve].

For `CC[N+](CC)(CC)CCOc1ccc(/C=C/c2ccccc2)cc1`, which Potency is on record?
The Potency was inconclusive: 18.4 µM [cytotoxic, single point].

Which Potency does the source give for `CC1CN(Cc2cc(=O)oc3cc(O)c(Cl)cc23)CC(C)O1` (stereo not given) here?
The Potency was “inactive”.

With `CCc1cccc(C)c1NC(=O)C(NS(=O)(=O)c1ccc2c(c1)CCC(=O)N2)c1ccccc1` (stereo not given) as the molecule, how does the Potency read?
The Potency was “inactive”.

With `Cc1cccc(C)c1OCC(O)CN(Cc1ccccc1O)C1CCCCC1` (stereo not given) as the molecule, how does the Potency read?
Its Potency is inconclusive: 29.1 µM [cytotoxic, single point].

With `O=C(CCl)Nc1cccc(Oc2ccccc2)c1` as the molecule, how does the Potency read?
Its Potency is inconclusive: 29.1 µM [cytotoxic, single point].

For `Cc1ccc(C)c(C(C)NC(=O)CC#N)c1` (stereo not given), which Potency is on record?
The Potency was “inactive”.

With `CCNC(=S)NNc1nc(N2CCCCC2)nc(N2CCOCC2)n1` as the molecule, how does the Potency read?
Its Potency is inconclusive: 29.1 µM [rising, single point].

With `O=C(CCN1Cc2ccccc2C1)c1ccc2c(c1)OCCO2` as the molecule, how does the Potency read?
The Potency was “inactive”.

For `COc1cccc(-c2nc(CS(=O)(=O)CC(=O)NCCc3cc(OC)ccc3OC)c(C)o2)c1`, which Potency is on record?
The Potency was inconclusive: 23.1 µM [cytotoxic, partial curve, poor fit].

For `CC(=O)Nc1sc2c(c1-c1nc3ccccc3s1)CCN(C(C)C)C2`, which Potency is on record?
Its Potency is active: 7.31 µM.

With `CCCc1cc(=O)[nH]c(SCC(=O)Nc2ccc(OC)c(S(=O)(=O)N3CCCCC3)c2)n1` as the molecule, how does the Potency read?
The Potency was inconclusive: 29.1 µM [cytotoxic, partial curve, poor fit].

Which Potency does the source give for `COc1ccc(S(=O)(=O)N2CCCCCC2)cc1C(=O)Nc1ccc(C(=O)N(C)C)cc1` here?
The Potency was inconclusive: 6.51 µM [rising, partial curve].

Which Potency does the source give for `O=[N+]([O-])c1cc(/C=N/N/C(=N/c2ccccn2)c2ccccn2)ccc1O` here?
The Potency was inconclusive: 29.1 µM [cytotoxic, single point].

Which Potency does the source give for `CN(Cc1ccc(-n2cccn2)cc1)C(=O)c1cnn2c1NC(c1ccco1)CC2C(F)(F)F` (stereo not given) here?
The Potency was inconclusive: 23.1 µM [cytotoxic, single point].

For `Cc1cccc(C)c1NC(=O)NC1(C(=O)NCC2CCCO2)CCCCC1` (stereo not given), which Potency is on record?
The Potency was inconclusive: 0.291 µM [cytotoxic, full curve].

Which Potency does the source give for `COCCN(C(=O)COC(=O)c1sccc1C)c1c(N)n(Cc2ccccc2)c(=O)[nH]c1=O` here?
Its Potency is “inactive”.

With `O=S(=O)(Nc1nc2ccccc2nc1Cl)c1ccccc1` as the molecule, how does the Potency read?
Its Potency is “inactive”.

With `C=Cc1cc2c(cc1O)CCC1C2CCC2(C)C(O)CCC12` (stereo not given) as the molecule, how does the Potency read?
Its Potency is active: 18.4 µM.

For `COc1ccc(S(=O)(=O)N(Cc2ccccc2)c2ccccc2C(=O)O)cc1`, which Potency is on record?
Its Potency is “inactive”.

For `Cc1c(NS(=O)(=O)c2ccc3c(c2)OCCO3)cccc1-c1nc2cccnc2s1`, which Potency is on record?
The Potency was inconclusive: 20.6 µM [cytotoxic, single point].

For `COc1ccccc1/C=C/C1(C(=O)NC2CCCC2)CC(=O)N1c1ccc(F)cc1` (stereo not given), which Potency is on record?
Its Potency is “inactive”.

For `NC(=O)c1nsc(C(=O)N(CCCN2CCOCC2)C(C(=O)NC2CCCCC2)c2ccc(Cl)cc2)c1N` (stereo not given), which Potency is on record?
The Potency was inconclusive: 29.1 µM [rising, single point].

For `COc1ccc(/C=C/c2c([N+](=O)[O-])c(=O)n(C)c(=O)n2C)cc1O`, which Potency is on record?
The Potency was inconclusive: 29.1 µM [cytotoxic, single point].

Which Potency does the source give for `CC(=O)c1ccc(NC(=O)CSc2ccc(-c3ccc(-n4cccn4)cc3)nn2)cc1` here?
The Potency was “inactive”.

For `Clc1ccc2nc(N3CCN(c4ccccc4)CC3)sc2c1`, which Potency is on record?
Its Potency is “inactive”.

With `COc1ccc(NC(=O)[C@@H]2CC=C[C@@H]3CCN(Cc4ccccc4)C(=O)[C@@H]32)cc1` as the molecule, how does the Potency read?
Its Potency is “inactive”.

Which Potency does the source give for `C[C@H](NS(=O)(=O)c1ccc(F)cc1)C(=O)OCC(=O)c1c(N)n(C)c(=O)n(C)c1=O` here?
The Potency was “inactive”.

For `N#Cc1cc(-c2ccccc2)nc(Oc2ccc(Cl)cc2)n1`, which Potency is on record?
The Potency was inconclusive: 18.4 µM [cytotoxic, single point].

For `COc1cc([N+](=O)[O-])cc(/C=N/NC(=O)c2cc(-c3ccccc3)nc3ccccc23)c1O`, which Potency is on record?
The Potency was inconclusive: 29.1 µM [cytotoxic, single point].
